Test results taken from patent US7198942B2, “Acetylcholine receptor subunits” (Bayer CropScience LP, priority 2000, dated 2007).
At least one structure is not confirmed: it was looked up by name or label, or the drawing left a doubt.

Protein sequences, listed by entry. Tags and fused reporters are not part of them. Residues count along the entry.
UniProt P09482, 24-622: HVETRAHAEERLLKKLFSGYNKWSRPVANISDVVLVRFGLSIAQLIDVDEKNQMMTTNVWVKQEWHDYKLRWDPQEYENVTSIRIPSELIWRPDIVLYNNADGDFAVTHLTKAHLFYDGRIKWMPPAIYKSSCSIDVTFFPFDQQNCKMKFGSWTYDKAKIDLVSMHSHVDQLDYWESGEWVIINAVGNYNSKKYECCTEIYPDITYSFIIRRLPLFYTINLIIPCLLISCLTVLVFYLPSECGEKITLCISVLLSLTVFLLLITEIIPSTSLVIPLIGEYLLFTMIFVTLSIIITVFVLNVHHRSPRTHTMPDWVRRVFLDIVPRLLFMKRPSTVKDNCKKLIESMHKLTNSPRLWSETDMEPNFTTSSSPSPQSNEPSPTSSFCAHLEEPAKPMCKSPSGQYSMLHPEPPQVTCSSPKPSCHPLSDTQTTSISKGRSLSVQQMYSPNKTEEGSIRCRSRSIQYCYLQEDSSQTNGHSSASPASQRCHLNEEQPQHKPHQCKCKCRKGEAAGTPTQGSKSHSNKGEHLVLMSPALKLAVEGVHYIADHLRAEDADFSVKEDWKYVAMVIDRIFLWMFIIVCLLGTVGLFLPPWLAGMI
UniProt P09484, 19-491: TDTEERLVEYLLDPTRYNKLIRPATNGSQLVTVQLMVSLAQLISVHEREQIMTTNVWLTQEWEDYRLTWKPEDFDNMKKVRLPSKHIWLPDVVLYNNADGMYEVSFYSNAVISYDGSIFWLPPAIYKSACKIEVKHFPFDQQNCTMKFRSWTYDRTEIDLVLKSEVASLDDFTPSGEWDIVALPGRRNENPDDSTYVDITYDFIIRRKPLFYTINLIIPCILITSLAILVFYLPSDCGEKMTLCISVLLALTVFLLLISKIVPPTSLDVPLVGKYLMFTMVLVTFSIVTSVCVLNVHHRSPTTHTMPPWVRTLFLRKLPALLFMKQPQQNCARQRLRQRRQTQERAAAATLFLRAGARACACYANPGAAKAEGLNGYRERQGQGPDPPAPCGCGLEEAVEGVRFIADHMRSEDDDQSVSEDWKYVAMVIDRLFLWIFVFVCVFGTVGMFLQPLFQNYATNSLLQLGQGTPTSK

How the values were obtained:
[1] = target: T1, receptors comprising unmodified chicken α4 subunits and chicken β2 subunits (Gallus gallus, UniProt P09482+P09484); experiment: Dual electrode voltage clamp on Xenopus oocytes expressing chicken α4/β2 receptors; format: cell-based; details: membrane voltage −80 mV, FIG. 2B
T1 construct: expressed in transfected cells; host or cells: Xenopus oocytes (nuclear injection of cDNA expression vectors)

[2] = target: T2, chicken α4 and chicken β2 subunits (Gallus gallus, UniProt P09482+P09484); experiment: Fura-2 calcium imaging in Sf9 cells, chicken α4/β2; format: cell-based; details: final concentration of acetylcholine 1 mM, FIG. 4 bottom
T2 construct: expressed in transfected cells; host or cells: Spodoptera frugiperda Sf9 cells (transient)

[3] = tested on: receptors comprising unmodified Heliothis α1 subunits and chicken β2 subunits; experiment: Dual electrode voltage clamp on Xenopus oocytes expressing Heliothis α1/chicken β2 receptors; format: cell-based, Heliothis virescens / chicken; details: membrane voltage −80 mV, FIG. 2C
Experimental: Xenopus oocytes were isolated and prepared as previously described (Bertrand et al. 1991). On the first day after isolation of the oocytes, in each case 10 nl of a solution with 2 ng of an appropriate cDNA expression vector were injected into the cell nuclei of the oocytes. The oocytes were kept at 19° C. in a suitable medium (BARTH solution consisting (in mM) of NaCl 88, KCl 1, NaHCO3 2.4, MgSO4 0.82, Ca(NO3)2 0.33, CaCl2 0.41, HEPES 10, pH 7.4) for 3–5 days. After this time, the electrophysiological experiments were carried out.
Electrophysiological recordings were carried out using a dual electrode voltage clamp by tried and tested methods which are well known (compare Bertrand et al. 1992). Each oocyte was placed singly in a measurement chamber and pierced by two microelectrodes. […] The membrane voltage was fixed at −80 mV using a voltage clamp amplifier (TEC-00, npi, Tamm, Germany), and the inward current flowing through the cell membrane was measured and recorded by computer. […]
In order to characterize the sensitivity of the modified receptors to acetylcholine and imidacloprid in more detail, dose-effect plots were recorded by repeating the experiment described above with different concentrations of the substance.

SMILES: CC(=O)OCC[N+](C)(C)C [acetylcholine]
- ligand-induced conductance [1]: respond
- rise in intracellular calcium concentration (Fura-2 ratio) [2]: rise in intracellular calcium
- sensitivity (ligand-induced conductance) [3]: sensitive
